Measurements reported in publication PMC9441067.
Results are given in words; binding and its absence hold for the method and conditions named. Binding seen in cells or lysates may run through a third protein. Some binding calls cover weakened binding; strength is not graded here. For some assays here: Sequences can lack the tags named with a protein.

Amino acid sequences for entries named in this document (tags omitted).
UniProt Q96EB6: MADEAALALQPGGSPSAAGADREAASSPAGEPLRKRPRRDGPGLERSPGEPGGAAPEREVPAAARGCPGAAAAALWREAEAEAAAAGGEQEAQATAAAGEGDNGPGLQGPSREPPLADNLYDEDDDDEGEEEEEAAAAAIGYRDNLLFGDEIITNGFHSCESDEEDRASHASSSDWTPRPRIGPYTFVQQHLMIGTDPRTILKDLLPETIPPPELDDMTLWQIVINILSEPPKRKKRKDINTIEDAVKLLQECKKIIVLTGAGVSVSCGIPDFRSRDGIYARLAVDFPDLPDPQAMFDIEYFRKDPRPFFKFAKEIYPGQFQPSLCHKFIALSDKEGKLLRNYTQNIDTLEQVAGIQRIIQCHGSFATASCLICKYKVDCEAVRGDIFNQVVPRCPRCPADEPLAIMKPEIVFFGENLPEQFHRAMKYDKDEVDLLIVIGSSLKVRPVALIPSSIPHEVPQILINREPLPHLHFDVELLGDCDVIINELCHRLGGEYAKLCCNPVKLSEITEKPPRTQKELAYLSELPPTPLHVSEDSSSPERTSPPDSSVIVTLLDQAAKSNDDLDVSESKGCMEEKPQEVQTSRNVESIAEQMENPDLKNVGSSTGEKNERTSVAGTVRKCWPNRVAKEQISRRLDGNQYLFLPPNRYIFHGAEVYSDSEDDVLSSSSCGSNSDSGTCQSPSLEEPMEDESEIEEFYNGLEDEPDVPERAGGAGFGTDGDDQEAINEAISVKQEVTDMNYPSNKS

B1: His-tagged heme oxygenase 1 (HO1) (enzyme, UniProt P09601 1-288)
chain: MERPQPDSMPQDLSEALKEATKEVHTQAENAEFMRNFQKGQVTRDGFKLVMASLYHIYVALEEEIERNKESPVFAPVYFPEELHRKAALEQDLAFWYGPRWQEVIPYTPAMQRYVKRLHEVGRTEPELLVAHAYTRYLGDLSGGQVLKKIAQKALDLPSSGEGLAFFTFPNIASATKFKQLYRSRMNSLEMTPAVRQRVIEEAKTAFLLNIQLFEELQELLTHDTKDQSPSRAPGLRQRASNKVQDSAPVETPRGKPPLNTRSQAPLLRWVLTLSFLVATVAVGLYAM
B2: heme oxygenase 1 (HO1), in THP-1 and MV4-11 cells (enzyme, UniProt P09601 1-288)
chain: B1 chain

What was measured:
[1] = biological target: Flag-tagged Sirtuin1 (Sirt1) (UniProt Q96EB6); assay: co-IP; HEK293T cells transfected with His-tagged HO1 and Flag-tagged Sirt1 plasmids; lysates immunoprecipitated with anti-His or anti-Flag antibody and immunoblotted with the other one
[2] = biological target: endogenous Sirtuin1 (Sirt1), in THP-1 and MV4-11 cells (human (endogenous in THP-1 and MV4-11)) (UniProt Q96EB6); assay: co-IP; THP-1 and MV4-11 cell lysates immunoprecipitated with anti-HO1 or anti-Sirt1 antibody and immunoblotted with anti-Sirt1 or anti-HO1 antibody

Binder	binding [1]	binding [2]
B1	binds	–
B2	–	binds
